# Measured values from patent publication US10647598B2, “Antimicrobial and algicidal agent for cooling water system” (KURITA WATER INDUSTRIES LTD., priority 2013, dated 2020).
# Some results were stated once for a whole list of compounds, not compound by compound.
# Tested on: algae A to C
# Test: Test tube algicidal test, overall assessment
# Type: cell-based
# Details: Table 1, algae A to C, 3 days
# Procedure: A test water system containing algae was prepared as described below.
# Secondary treated water obtained by filtrating sewage using a filter having a pore diameter of 0.1 μm was received in a beaker having a volume of 1 L, and to this secondary treated water, 1 g of algae sampled from each of cooling towers A, B, and C in which an antimicrobial treatment was performed using a chlorosulfamic acid was added. Algae A sampled from the cooling tower A were diatoms and contained green algae. Algae B sampled from the cooling tower B were primarily formed of green algae and contained blue-green algae and diatoms. Algae C sampled from the cooling tower C were primarily formed of blue-green algae and contained green algae and diatoms.
# After being raveled and sufficiently dispersed in the beaker, the algae A, B, and C were each dispensed into test tubes.
# In Examples 1 to 5 and Comparative Examples 8 to 11 and 13 to 16, a chlorosulfamic acid (abbreviated as “CSA”, and the addition amount represents the residual chlorine concentration) and one of 5-chloro-2-methyl-4-isothiazolone-3-one (abbreviated as “MIT”), 2,2-dibromo-3-nitrilopropion amide (abbreviated as “DBNPA”), and 2-bromo-2-nitro-1,3-propanediol (abbreviated as “BNP) were added to each test tube so as to have predetermined concentrations shown in Table 1. In Comparative Example 6, MIT was only added. In Comparative Example 7, DBNPA was only added. In Comparative Example 12, BNP was only added. In Comparative Example 17, no chemical agents were added. Subsequently, after the test tubes were left for 3 days at a north-side window so as not to be exposed to direct sunlight, the conditions of the algae were observed by visual inspection and evaluated in accordance with the following criteria. […]
row,Compound,"Algicidal effect, assessment in words"
1,"O=S(=O)(O)NCl [Comparative Example 1, chlorosulfamic acid]",proliferation of the algae A to C cannot be suppressed at all
2,"O=S(=O)(O)NCl [compound 2, chlorosulfamic acid]",proliferation of the algae A to C cannot be suppressed at all
3,"O=S(=O)(O)NCl [compound 3, chlorosulfamic acid]",proliferation of the algae A to C cannot be suppressed at all
